Test results from PubChem BioAssay AID493014 (National Center for Advancing Translational Sciences (NCATS), 2011).
Where “and” joins values, the source holds several entries; their conditions need not be identical. Equal values may be shown once. This is one part of the list. Shown are side measurements of this screen, not its main read-out; they come without a call. Compounds called inactive in the main read-out are mostly missing here. Potencies come from curve fits of mixed quality, noted in brackets.

Assay: qHTS Assay to Find Inhibitors of Chronic Active B-Cell Receptor Signaling
Settings: ABC-DLBCL IkBa-CBG/CBR reporter, luminescence ratio (green luciferase fused to IkBa over red control in TMD8 lymphoma cells), 4 h
Procedure, shortened: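 TMD8 ABC-DLBCL cells carrying doxycycline-inducible green luciferase fused to IkappaBalpha plus unfused red luciferase were exposed to compounds (up to 46 uM) for 4 hrs at 37C. Activity came from the overlap-corrected green/red luminescence ratio.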

[1] = measured here: CBR red luminescence, cell number
[2] = measured here: IkBa-CBG green luminescence

Row | Structure (SMILES) | AC50 [1] | AC50 [2]
1 | C[C@]12CCC(=O)C=C1[C@H](O)C[C@@H]1[C@@H]2[C@@H](O)C[C@@]2(C)[C@H]1CC[C@]2(O)C(=O)CO | 20.6 µM [rising, partial curve, poor fit] | 
2 | COc1ccc(NC(=O)Cn2nnc(C(=O)NCc3ccco3)c2N)cc1 | 31.6 µM [rising, single point] | 
3 | O=C(Nc1cccc(S(=O)(=O)C(F)F)c1)c1ccc(S(=O)(=O)N2CCOCC2)cc1 | 11.6 µM [rising, partial curve] | 
4 | CCc1cccc(CC)c1NC(=O)CSc1nc2ccc(N3C(=O)C4C5C=CC(C5)C4C3=O)cc2s1 (stereo unspecified) | 13 µM [rising, partial curve, poor fit] | 
5 | COc1ccc2ccc(O)c(CN3CCN(S(=O)(=O)c4cccc(C(F)(F)F)c4)CC3)c2c1 | 4.11 µM [falling, full curve, poor fit] | 
6 | Cc1cc(C)c(OCC(O)CN2CCN(c3ccccn3)CC2)c(C)c1 (stereo unspecified) | 35.5 µM [falling, single point] | 
7 | CC(/C=C1\SC(=S)N(CCCC(=O)Nc2ccc(C(=O)O)cc2)C1=O)=C\c1ccccc1 | 1.16 µM [falling, full curve] | 
8 | Fc1ccc(Cn2nnnc2C(c2ccc(Cl)cc2)N2CCSCC2)cc1 (stereo unspecified) | 29.1 µM [falling, single point] | 
9 | Cc1ccnc(NC2c3ccccc3C(=O)N2Cc2ccccc2Cl)c1 (stereo unspecified) | 13 µM [rising, partial curve, poor fit] | 
10 | O=C(CCNc1n[nH]c(=O)[nH]c1=O)N/N=C\c1cccc(OCc2ccccc2)c1 | 0.708 µM [rising, full curve] | 
11 | CC(=O)Nc1cccc(-c2csc(Nc3ccc(C)cn3)n2)c1 | 10.3 µM [falling, partial curve] | 
12 | c1ccc(-c2nc(NCc3ccco3)c3oc4ccccc4c3n2)cc1 | 11.2 µM [falling, partial curve] | 
13 | CCOc1ccccc1N(CC(=O)NC1CCCCC1)C(=O)c1nsc(Cl)c1Cl | 11.2 µM [falling, partial curve] | 
14 | Clc1cccc(-c2ccc(-c3nc4ccccn4c3NCc3ccccc3)cc2)c1 | 29.1 µM [falling, single point] | 
15 | O=C(O)c1cccnc1Nc1cccc(C(F)(F)F)c1 | 10 µM [falling, partial curve, poor fit] | 
16 | Cn1ncc2c(NNC(=O)c3ccc(Cl)c(Cl)c3)ncnc21 | 29.1 µM [falling, single point] | 
17 | O=C(Nc1cccc(NC(=O)c2ccco2)c1)c1ccc([N+](=O)[O-])cc1 | 4.47 µM [falling, partial curve, poor fit] | 
18 | Cc1cc(C)n2nc(SCc3cccc(F)c3)nc2n1 | 0.0891 µM [rising, full curve, poor fit] | 
19 | O=[N+]([O-])c1cccc(/C=N/Nc2ccccn2)c1 | 2.82 µM [rising, full curve, poor fit] | 
20 | c1ccc(N2CCN(c3nc4cc5c(cc4s3)OCO5)CC2)cc1 | 0.00411 µM [rising, full curve, poor fit] | 

Row | Structure (SMILES) | AC50 [1] | AC50 [2]
21 | C/C(=N/Nc1nc(C)c(C)s1)c1cccc([N+](=O)[O-])c1 | 4.47 µM [rising, full curve] | 6.31 µM [falling, partial curve, poor fit]
22 | COc1nc(-c2ccc(Cl)cc2Cl)nc2ccccc12 | 7.94 µM [rising, partial curve] | 
23 | Cc1nc2ccccc2c2oc(C(=O)N3CCc4ccccc43)cc12 | 3.55 µM [rising, full curve, poor fit] | 
24 | O=C(NCc1cccc(C(F)(F)F)c1)C1CC(c2ccc(C(F)(F)F)cc2)=NO1 (stereo unspecified) | 10 µM [falling, partial curve, poor fit] | 
25 | CCCOc1ccc(C(=O)CCC(=O)Nc2ccc(N3CCN(C)CC3)cc2)cc1 | 0.116 µM [rising, full curve, poor fit] | 
26 | Cc1nc2ccc(Cl)cc2nc(C)/c1=N\O | 6.31 µM [rising, single point] | 
27 | Cc1cc(C)cc(N(CCC#N)C(=O)CSc2ncnc3sccc23)c1 | 4.11 µM [rising, partial curve, poor fit] | 
28 | O=C(CCS(=O)(=O)Cc1cccc(Cl)c1)NCCc1ccccc1 | 6.31 µM [falling, single point] | 
29 | Cc1noc(C)c1COC(=O)CCc1nc2ccccc2s1 | 35.5 µM [rising, partial curve, poor fit] | 
30 | O=C(Nc1nc(=O)n(C(=O)C2CC2)s1)c1ccccc1 | 1.46 µM [rising, partial curve, poor fit] | 
31 | O=C(N/N=C/C(Br)=C/c1ccccc1)c1cccs1 | 14.1 µM [falling, partial curve, poor fit] | 
32 | COc1ccc2c(-c3ccccc3)cc(SCC(=O)N(C)C3CCS(=O)(=O)C3)nc2c1 (stereo unspecified) | 29.1 µM [falling, single point] | 
33 | COCC(=O)N(Cc1nc2ccccc2c(=O)[nH]1)Cc1cccs1 | 11.6 µM [rising, partial curve, poor fit] | 
34 | Fc1cccc2sc(Nc3nc4ccccc4s3)nc12 | 1.64 µM [rising, partial curve, poor fit] | 
35 | CC(=O)n1cc([C@H]2C=C(C(=O)Nc3ccccc3)O[C@@H](OCCCCO)C2)c2ccccc21 | 11.2 µM [falling, partial curve, poor fit] | 
36 | COc1cc(C(C(=O)NC2CCCC2)N(C(=O)Cc2cccs2)C2CC2)cc(OC)c1OC (stereo unspecified) | 35.5 µM [rising, partial curve, poor fit] | 
37 | COc1ccc(NC(=O)C(=S)NC2CCCCC2)cc1 | 11.2 µM [falling, partial curve, poor fit] | 
38 | Cc1oc(-c2cccc(Cl)c2)nc1CSCC(=O)O | 6.51 nM [falling, full curve, poor fit] and 10 µM [falling, partial curve] | 0.013 µM [rising, full curve, poor fit]
39 | Cn1c(-c2ccccc2)cnc1SCC(=O)N1CCCCC1 | 3.66 µM [rising, partial curve, poor fit] | 

Some of these compounds in order of heavy-atom count, falling:
Row | Structure (SMILES) | AC50 [1] | AC50 [2]
36 | COc1cc(C(C(=O)NC2CCCC2)N(C(=O)Cc2cccs2)C2CC2)cc(OC)c1OC (stereo unspecified) | 35.5 µM [rising, partial curve, poor fit] | 
28 | O=C(CCS(=O)(=O)Cc1cccc(Cl)c1)NCCc1ccccc1 | 6.31 µM [falling, single point] | 
29 | Cc1noc(C)c1COC(=O)CCc1nc2ccccc2s1 | 35.5 µM [rising, partial curve, poor fit] | 
